17 molecules from the supplement of paper PMC5393889 can be followed below.

Each structure is given as a SMILES string. The list shows a part of the results.

The experiment concerns Caenorhabditis elegans N2. The experiment in a line: aldicarb interaction hit call (worm growth perturbed in combination with 10 uM aldicarb in both replicates, no effect as single agent) (binary (1 = interacts)); higher = interacts with aldicarb (growth perturbed). The conditions noted are these: first compound 1.5 µM; aldicarb concentration 10 µM; 6 days; 20 °C.
For `CC(NCc1c[nH]nc1-c1cccc2ccccc12)c1ccc(F)cc1` (configuration not stated) [wact-239] + CNC(=O)O/N=C/C(C)(C)SC [aldicarb], the “aldicarb interaction hit call” value was inactive: 0.
With `C#CCN1C(=O)S/C(=C/c2cc(C)n(-c3cccc(C(=O)OC)c3C)c2C)C1=O` [wact-358] + CNC(=O)O/N=C/C(C)(C)SC [aldicarb] the figure was inactive: 0.
With `C=CCSc1nnc(-c2ccc(Cl)cc2Cl)o1` [wact-5] + CNC(=O)O/N=C/C(C)(C)SC [aldicarb] the figure was inactive: 0; with `CSc1ccc(/C=N/NC(=O)c2cccc(Cl)c2)cc1` [wact-365] + CNC(=O)O/N=C/C(C)(C)SC [aldicarb], inactive: 0; with `Nc1ccc2oc(-c3ccc(Cl)cc3)nc2c1` [wact-395] + CNC(=O)O/N=C/C(C)(C)SC [aldicarb], inactive: 0.
With `Nc1cccc(-c2nc3ccccc3s2)c1` [wact-387] + CNC(=O)O/N=C/C(C)(C)SC [aldicarb] the figure was inactive: 0; with `Cc1nc(CNC2CCCc3c2cnn3-c2ccc(C(C)(C)C)cc2)c[nH]1` (configuration not stated) [wact-300] + CNC(=O)O/N=C/C(C)(C)SC [aldicarb], inactive: 0; with `CC(C(=O)N1CCCc2ccccc21)c1ccc([N+](=O)[O-])cc1` (configuration not stated) [wact-511] + CNC(=O)O/N=C/C(C)(C)SC [aldicarb], inactive: 0.
As to `O=C(c1ccc(COc2ccc(Cl)cc2)cc1)N1CCCCC1` [wact-606] + CNC(=O)O/N=C/C(C)(C)SC [aldicarb], the “aldicarb interaction hit call” value is inactive: 0.
With `CCOc1cc(Cl)c(S(=O)(=O)NCc2ccncc2)cc1Cl` [wact-132] + CNC(=O)O/N=C/C(C)(C)SC [aldicarb] the figure was inactive: 0.
With `C#CCOc1nc(OCC#C)nc(N(c2ccccc2)c2ccccc2)n1` [wact-344] + CNC(=O)O/N=C/C(C)(C)SC [aldicarb] the figure was inactive: 0.
Regarding `COCCNC(=O)c1ccc(OC2CCN(C/C=C/c3ccc(F)cc3)CC2)c(Cl)c1` [wact-275] + CNC(=O)O/N=C/C(C)(C)SC [aldicarb], the “aldicarb interaction hit call” value is inactive: 0.
Take `CCC(NC(=O)c1ccc2oc(Cc3ccc(Cl)cc3)nc2c1)c1ccncc1` (configuration not stated) [wact-322] + CNC(=O)O/N=C/C(C)(C)SC [aldicarb]: the “aldicarb interaction hit call” value is inactive: 0.
Turning to `O=C(NCc1ccc(Cl)cc1)C(Cl)(Cl)Cl` [wact-485] + CNC(=O)O/N=C/C(C)(C)SC [aldicarb], the “aldicarb interaction hit call” value was inactive: 0.
With `CCOc1ccc(/C=C/C(=O)c2ccco2)cc1` [wact-89] + CNC(=O)O/N=C/C(C)(C)SC [aldicarb] the figure was inactive: 0; with `Cc1ccc(-c2n[nH]cc2CNCc2ccc(OC(F)(F)F)cc2)cc1C` [wact-307] + CNC(=O)O/N=C/C(C)(C)SC [aldicarb], inactive: 0.
With `OC(COc1ccc(CNCc2ccc(C(F)(F)F)cc2)cc1)CN1CCCCC1` (configuration not stated) [wact-284] + CNC(=O)O/N=C/C(C)(C)SC [aldicarb] the figure was inactive: 0.
